Patent US20110135573A1, “METALLOPROTEINASE 9 AND METALLOPROTEINASE 2 BINDING PROTEINS” (DYAX CORP., priority 2009, published 2011)
These are yes or no findings as the source states them, for the method shown. Some binding calls cover weakened binding; strength is not graded here.

By UniProt entry, the sequences of proteins in these tests, tags left out. Residues count along the entry.
UniProt P14780, residues 107-457: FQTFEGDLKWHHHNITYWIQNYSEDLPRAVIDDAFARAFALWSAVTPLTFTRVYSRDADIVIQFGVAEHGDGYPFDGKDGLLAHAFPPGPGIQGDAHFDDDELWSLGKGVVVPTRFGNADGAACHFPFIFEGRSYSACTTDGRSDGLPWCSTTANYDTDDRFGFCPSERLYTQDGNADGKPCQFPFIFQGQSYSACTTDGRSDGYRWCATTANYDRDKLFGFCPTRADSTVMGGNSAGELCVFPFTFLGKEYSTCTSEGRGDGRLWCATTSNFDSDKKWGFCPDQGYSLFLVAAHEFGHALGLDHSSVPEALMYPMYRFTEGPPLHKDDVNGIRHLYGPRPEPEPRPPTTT

Tests used:
[1] = target: Human MMP-9 catalytic domain (BIOMOL, SE-244) (human) (UniProt P14780); assay: SPR (Biacore 3000)
[2] = target: Human MMP-9 catalytic domain (BIOMOL, SE-244) (human) (UniProt P14780); assay: SPR (Biacore 3000), antibody captured via anti-Fc, enzyme flowed

- binding [1]: binds
- binding [2]: binds
B1: 539A-M0237-D02 hIgG1 (antibody, V domains shown)
VH: EVQLLESGGGLVQPGGSLRLSCAASGFTFSQYPMWWVRQAPGKGLEWVSYIVPSGGRTYYADSVKGRFTISRDNSKNTLYLQMNSLRAEDTAVYYCAKDRAYGDYVGWNGFDYWGQGTLVTVSS
VL: DIQMTQSPATLSLSPGERATLSCRASQSISSFLAWYQQKPGQAPRLLIYDASYRATGIPARFSGSGSGTDFTLTISSLEPEDYAVYYCQQRGNWPITFGQGTRLEIK
